Experimental data reported in PubChem BioAssay AID1458 (National Center for Advancing Translational Sciences (NCATS), 2008).
The campaign covered roughly 210,000 compounds. About 5,900 (2.8%) were called active. About 5% were inconclusive and are not listed. Calls follow the shape of the dose curve; as a rule, active = well fitted activation curve with a large enough effect; inconclusive = small, poorly fitted or top-dose-only effect; inactive = no such curve, though single readings can be large or run the other way. Only a part is listed here, and it is no random draw. The source gives no active or inactive call for entries shown without one.
Potency is read from the fitted curve at half-maximal effect.

Assay: qHTS Assay for Enhancers of SMN2 Splice Variant Expression; also: nearly all actives have a fitted effect of over 55% in size; as to activity change, positive = activation: % of control where 0% means no effect
Details: HEK293 SMN2-luciferase splicing reporter, luminescence, 30-36 h; activity change, positive = activation: at 46.1 µM (top of the series) unless noted
How it was run: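 qHTS luciferase splicing reporter: luminescence rises when SMN2 exon 7 is included in transfected HEK293 cells. Compound exposure lasted 30-36 h at 37C, with 4.5 mM final sodium butyrate as control, followed by a ONE-Glo read.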
For `CCOC(=O)Nc1ccc2c(C)cc(=O)oc2c1`, the Potency was active: 14.1 µM.
With `COc1ccc(CNC(=O)C2COc3ccccc3O2)cc1` (stereo not given) the Potency was active: 12.6 µM.
Work on `CCN(CC)CCCNC(=O)c1[nH]c(C)c(C(=O)NC2CCCCC2)c1C` yielded an activity change, positive = activation of 30.4%.
For `CCc1ccc(OCCOCC(O)CN2CCN(Cc3ccc(Cl)cc3)CC2)cc1` (stereo not given), the “activity change, positive = activation” value was inactive: -60.4%.
In the case of `Cc1ccc(C(=O)/C=C/Nc2cccc([N+](=O)[O-])c2)o1`, the Potency is reported as active: 14.1 µM.
For `COc1ccc(Nc2ncc(F)c(N3CCOCC3)n2)cc1`, the Potency was active: 10 µM.
Compound `COc1ccc(NC(=O)C23CCC(C)(C(=O)O2)C3(C)C)cc1` (stereo not given) has an activity change, positive = activation of 25.1%.
In the case of `CCN(C(=O)COC(=O)c1ccc(COc2ccc3c(C)cc(=O)oc3c2)cc1)C1CCS(=O)(=O)C1` (stereo not given), the activity change, positive = activation is reported as 77.1%.
Compound `O=C(CSc1ncn[nH]1)NC1CC2CCC1C2` (stereo not given) has an activity change, positive = activation of 27.1%.
With `CNc1nc2sc3c(c2c(=O)n1C)CC(C)(C)SC3` the “activity change, positive = activation” value was inactive: -30.2%.
For `Nn1c(Nc2ccccc2)nc2sc3c(c2c1=O)CCC3`, the “activity change, positive = activation” value was inactive: -51.2%.
With `COc1ccc(/C=N\n2nnc3ccccc32)cc1` the Potency was active: 0.794 µM.
Work on `CCCN(CCC)CCNC(=O)C1c2ccccc2C(=O)N(CCOC)C1c1ccc(F)cc1` (stereo not given) yielded an activity change, positive = activation of 26.6%.
Work on `COc1ccc(-c2ccc(SCC(=O)NCC3CCCO3)nn2)cc1OC` (stereo not given) yielded an activity change, positive = activation of 50.9%.
In the case of `O=C(CSc1ccc(Cl)cc1)N1CCN(c2ccc(Cl)cc2[N+](=O)[O-])CC1`, the “activity change, positive = activation” value is reported as inactive: -37.5%.
Work on `COc1cc(Br)cc(CN2CCN(C=O)CC2)c1O` yielded an activity change, positive = activation of 60.6%.
For `COCCn1nnnc1C(c1ccc(O)c(OC)c1)N1CCc2ccccc2C1` (stereo not given), the activity change, positive = activation was 41.5%.
In the case of `O=C(/C=C/c1ccc2c(c1)OCCCO2)c1ccc2ccccc2c1O`, the “activity change, positive = activation” value is reported as inactive: -34.3%.
In the case of `CC(C)Cn1c(CN2CCN(c3cccc(Cl)c3)CC2)nc2c1c(=O)[nH]c(=O)n2C`, the activity change, positive = activation is reported as 22.8%.
Compound `Cc1ccc(N2CC(C(=O)NCc3ccccn3)CC2=O)cc1` (stereo not given) has an activity change, positive = activation of 32.4%.
With `CC(C)c1ccc(Nc2nc(CC(=O)O)cs2)cc1` the activity change, positive = activation was 85.3%.
`CCOc1cc(S(=O)(=O)NC2CCCC2)ccc1Cl` gave an activity change, positive = activation of 30.8%.
`Cc1c(Cl)cccc1NC(=S)NCc1ccccc1Cl` gave an activity change, positive = activation of -20.5%.
In the case of `Cc1cc(/C=N/n2cnnc2)c(C)n1-c1ccc(OCc2ccc(F)cc2)cc1`, the activity change, positive = activation is reported as -60.5%.
In the case of `O=C(O)CCC(=O)Nc1ccc(C(=O)OC2CCCCC2)cc1`, the “activity change, positive = activation” value is reported as inactive: -15.4%.
For `Cc1nc2ccccc2n1CC(O)COCC1CC=CCC1` (stereo not given), the activity change, positive = activation was -81.8%.
`CC(C)Cc1nnc(NC(=O)CSc2nc(=O)cc(N)n2-c2ccccc2)s1` showed an activity change, positive = activation of 32%.
`c1ccc(-n2nnnc2NC2CCCCCC2)cc1` showed an activity change, positive = activation of -55.2%.
For `Cc1nn(-c2ccccc2)c(Cl)c1/C=N/Nc1nc2ccccc2n1C`, the Potency was active: 11.2 µM.
In the case of `CCCCOC(=O)c1cccc(NC(=O)/C=C/c2ccccc2Cl)c1`, the Potency is reported as active: 1.41 µM.
With `CCc1ccc(N2CSC3=C(C#N)C(c4cccs4)CC(=O)N3C2)cc1` (stereo not given) the activity change, positive = activation was 15.8%.
In the case of `COc1ccc2c(c1)O[C@H](c1ccc3c(c1)OCO3)[C@@H](O)C2=O`, the Potency is reported as active: 12.6 µM.
With `Cc1ccc2c(c1)-c1nc3ccccc3cc1C2=NC1CCCCC1` the Potency was active: 6.31 µM.
Work on `CCOC(=O)c1ccc(NC(=O)C(=O)NCc2ccncc2)cc1` yielded an activity change, positive = activation of -51%.
Work on `COc1cc(NC(=O)CS(=O)(=O)c2ccccc2)cc(OC)c1OC` yielded an activity change, positive = activation of 33.9%.
In the case of `CCCNC1=C(N(C(C)=O)c2cccc(F)c2)C(=O)c2ccccc2C1=O`, the “activity change, positive = activation” value is reported as inactive: -110%.
For `Cn1cnnc1Sc1cc(N2CCN(S(=O)(=O)c3ccc(Cl)c(Cl)c3)CC2)ccc1[N+](=O)[O-]`, the “activity change, positive = activation” value was inactive: -35.8%.
For `CCOc1ccc(C(=O)Nc2cc(C)on2)cc1`, the Potency was active: 8.91 µM.
Work on `CC(C)Sc1nnc([C@H](Cc2c[nH]c3ccccc23)NC(=O)OC(C)(C)C)o1` yielded an activity change, positive = activation of 46.2%.
For `Cc1cccc(/C=N/NC(=O)NC2CCCCC2)c1`, the activity change, positive = activation was 30.8%.
`O=C(NNC(=S)Nc1ccc(F)cc1)C1CC1c1ccc(Cl)cc1` (stereo not given) showed an activity change, positive = activation of -8.68%.
Compound `Fc1ccc(C(CCCn2nnc(-c3cccnc3)n2)c2ccc(F)cc2)cc1` has an activity change, positive = activation of -41.9%.
With `Clc1ccc2scc(CN3CCCCC3)c2c1` the “activity change, positive = activation” value was inactive: -3.33%.
With `COc1ccc(C(=O)Nc2ccc(OC)c(OC)c2)cc1` the Potency was active: 11.2 µM.
For `Cc1ccc(S(=O)(=O)c2c(N)n(CC3CCOC3)c3nc4ccccc4nc23)cc1` (stereo not given), the activity change, positive = activation was 22.3%.
With `Cc1ncsc1CCOC(=O)C1C2CC3CC(C2)CC1C3` (stereo not given) the “activity change, positive = activation” value was inactive: -31.4%.
In the case of `CCCc1nn2cc(-c3ccc(C)c(C)c3)nc2s1`, the Potency is reported as active: 1.26 µM.
For `CCOC(=O)Cc1c(C)nc2c(-c3ccc(Cl)cc3)c(C(F)(F)F)nn2c1C`, the “activity change, positive = activation” value was inactive: -40%.
Work on `On1onc2c3cc(-c4ccccc4)nc3ccc21` yielded an activity change, positive = activation of -93.1%.
In the case of `CCOc1cc(/C=N/Nc2cccc(C(=O)O)c2)ccc1OCC(=O)N1CCCCC1`, the Potency is reported as active: 11.2 µM.
`N#Cc1ccc(N2Cc3ccccc3/C2=N/C(=O)Nc2ccc(Cl)cc2)cc1` showed an activity change, positive = activation of 37.3%.
In the case of `CCOC(=O)c1oc2ccccc2c1NC(=O)c1cccs1`, the activity change, positive = activation is reported as -31.2%.
In the case of `C=CC(C)N1C(=O)S/C(=C\c2ccc(N3CCOCC3)cc2C)C1=O` (stereo not given), the “activity change, positive = activation” value is reported as inactive: -37.6%.
For `COc1ccc(-c2cc(=O)c3ccccc3[nH]2)cc1`, the “activity change, positive = activation” value was inactive: -6.66%.
In the case of `Cc1cccc(-c2nc(CN3CCCC(C(=O)NCCc4ccc(Cl)cc4)C3)c(C)o2)c1` (stereo not given), the “activity change, positive = activation” value is reported as inactive: -64.6%.
With `Clc1cccc(-c2cc3nc4c(c(N5CCNCC5)n3n2)CCCC4)c1` the “activity change, positive = activation” value was inactive: -125%.
Compound `CCN(CC)C(=O)CSc1nc2ccccc2c(=O)[nH]1` has an activity change, positive = activation of 31.6%.
With `O=C(c1ccc(Cl)c(S(=O)(=O)N2CCCCCC2)c1)N1CCN(c2ccccn2)CC1` the “activity change, positive = activation” value was inactive: -46.5%.
In the case of `O=C(NCc1ccco1)c1sc2cccc(F)c2c1Cl`, the activity change, positive = activation is reported as 41.5%.
In the case of `CCOC(=O)COn1c(=O)c(-c2cc3ccccc3o2)[n+]([O-])c2ccccc21`, the Potency is reported as active: 14.1 µM.
